Measurements as given in patent publication US20050260693A1 (MOUNT SINAI SCHOOL OF MEDICINE, published 2005).
Changes are numbered by the printed parent chain. Results are given in words; binding and its absence hold for the method and conditions named. For some assays here: Binding seen in cells or lysates may run through a third protein. Some binding calls cover weakened binding; strength is not graded here. For some assays here: Tags and fused reporters may be left off the sequences shown. Blank lines part the entries; values can stand above or below the molecule they belong to.

The chains behind the UniProt entries cited, without tags or fusion partners.
UniProt P25322: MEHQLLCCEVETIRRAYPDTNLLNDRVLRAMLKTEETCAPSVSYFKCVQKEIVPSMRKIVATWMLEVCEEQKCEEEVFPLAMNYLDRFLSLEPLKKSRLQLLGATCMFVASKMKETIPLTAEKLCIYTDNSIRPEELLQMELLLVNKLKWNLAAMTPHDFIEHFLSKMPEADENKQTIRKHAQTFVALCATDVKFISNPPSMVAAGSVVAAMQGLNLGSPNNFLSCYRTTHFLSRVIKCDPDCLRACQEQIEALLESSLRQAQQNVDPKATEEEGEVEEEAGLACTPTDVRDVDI
UniProt Q61457: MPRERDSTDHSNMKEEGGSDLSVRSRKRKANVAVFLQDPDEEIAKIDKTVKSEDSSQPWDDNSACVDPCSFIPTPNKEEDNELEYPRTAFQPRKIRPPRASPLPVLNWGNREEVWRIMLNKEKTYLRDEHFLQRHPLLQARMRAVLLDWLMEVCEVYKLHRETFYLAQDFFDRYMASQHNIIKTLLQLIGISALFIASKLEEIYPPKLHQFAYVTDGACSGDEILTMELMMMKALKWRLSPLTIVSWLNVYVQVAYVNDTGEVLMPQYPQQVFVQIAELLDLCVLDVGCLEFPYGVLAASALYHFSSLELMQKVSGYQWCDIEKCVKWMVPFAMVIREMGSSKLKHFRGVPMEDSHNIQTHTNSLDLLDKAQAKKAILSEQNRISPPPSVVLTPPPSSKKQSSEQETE
UniProt P00520: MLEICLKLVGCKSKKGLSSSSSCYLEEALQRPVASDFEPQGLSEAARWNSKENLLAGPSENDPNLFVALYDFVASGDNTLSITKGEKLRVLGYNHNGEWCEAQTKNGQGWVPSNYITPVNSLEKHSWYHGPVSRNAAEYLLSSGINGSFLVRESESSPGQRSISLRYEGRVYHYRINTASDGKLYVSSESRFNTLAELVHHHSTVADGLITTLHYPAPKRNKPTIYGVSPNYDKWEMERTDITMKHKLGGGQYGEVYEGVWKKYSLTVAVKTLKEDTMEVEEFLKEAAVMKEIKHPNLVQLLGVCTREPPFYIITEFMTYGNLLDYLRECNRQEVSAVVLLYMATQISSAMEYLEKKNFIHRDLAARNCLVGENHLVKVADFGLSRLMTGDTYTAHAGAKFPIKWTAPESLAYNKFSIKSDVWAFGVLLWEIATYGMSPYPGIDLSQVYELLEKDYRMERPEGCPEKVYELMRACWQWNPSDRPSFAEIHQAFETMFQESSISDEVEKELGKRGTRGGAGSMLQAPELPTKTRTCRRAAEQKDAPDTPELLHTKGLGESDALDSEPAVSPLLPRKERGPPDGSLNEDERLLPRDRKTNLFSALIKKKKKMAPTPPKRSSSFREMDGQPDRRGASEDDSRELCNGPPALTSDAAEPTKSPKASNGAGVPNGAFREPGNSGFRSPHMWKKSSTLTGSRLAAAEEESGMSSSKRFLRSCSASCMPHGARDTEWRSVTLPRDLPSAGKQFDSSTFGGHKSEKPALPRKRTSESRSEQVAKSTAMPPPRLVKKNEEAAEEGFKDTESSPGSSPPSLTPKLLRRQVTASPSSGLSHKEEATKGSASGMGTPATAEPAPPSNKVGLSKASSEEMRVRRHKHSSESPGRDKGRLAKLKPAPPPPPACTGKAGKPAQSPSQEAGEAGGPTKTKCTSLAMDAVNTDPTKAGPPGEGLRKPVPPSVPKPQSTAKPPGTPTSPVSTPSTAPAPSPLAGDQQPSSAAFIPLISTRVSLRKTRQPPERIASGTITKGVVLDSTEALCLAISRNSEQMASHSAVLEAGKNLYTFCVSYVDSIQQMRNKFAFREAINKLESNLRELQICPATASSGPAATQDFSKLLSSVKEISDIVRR

Columns and labels:
[1] = biological target: T1, pRb (UniProt P13405); test: method not described (levels of pRb-bound c-Abl in SSeCKS-overexpressing cells)
T1 sequence (looked up): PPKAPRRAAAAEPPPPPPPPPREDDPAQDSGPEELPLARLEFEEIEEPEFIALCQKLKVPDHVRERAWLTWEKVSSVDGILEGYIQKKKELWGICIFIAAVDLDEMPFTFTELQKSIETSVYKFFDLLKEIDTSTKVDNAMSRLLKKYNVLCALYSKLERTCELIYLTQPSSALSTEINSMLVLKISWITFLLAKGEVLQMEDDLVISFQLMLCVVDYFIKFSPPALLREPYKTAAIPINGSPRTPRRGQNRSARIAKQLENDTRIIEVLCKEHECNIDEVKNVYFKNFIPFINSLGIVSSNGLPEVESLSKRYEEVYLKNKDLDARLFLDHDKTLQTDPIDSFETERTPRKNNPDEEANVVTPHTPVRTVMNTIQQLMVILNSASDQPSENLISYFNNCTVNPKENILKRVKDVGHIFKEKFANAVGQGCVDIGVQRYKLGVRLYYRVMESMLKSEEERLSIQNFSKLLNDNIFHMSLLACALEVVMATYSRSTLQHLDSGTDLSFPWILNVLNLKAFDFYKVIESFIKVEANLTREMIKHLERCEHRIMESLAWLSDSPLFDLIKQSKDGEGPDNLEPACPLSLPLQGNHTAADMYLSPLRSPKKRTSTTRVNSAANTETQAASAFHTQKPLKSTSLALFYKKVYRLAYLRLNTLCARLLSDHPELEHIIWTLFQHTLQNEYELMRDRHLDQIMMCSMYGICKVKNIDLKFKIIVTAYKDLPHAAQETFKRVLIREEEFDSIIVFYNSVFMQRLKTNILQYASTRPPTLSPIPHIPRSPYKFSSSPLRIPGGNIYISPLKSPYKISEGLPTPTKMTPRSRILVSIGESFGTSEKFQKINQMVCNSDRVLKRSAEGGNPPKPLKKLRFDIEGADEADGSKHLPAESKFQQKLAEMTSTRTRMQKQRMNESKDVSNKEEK

[2] = biological target: cyclin D1 (endogenous and ectopic) of S24, S24/D1, S24/V and V3 cells (UniProt P25322); test: GST pull-down with mutated GST-SSeCKS2
[3] = biological target: cyclin D1 (endogenous and ectopic) of S24, S24/D1, S24/V and V3 cells (UniProt P25322); test: GST pull-down from cell lysates, anti-cyclin D1 immunoblot
[4] = biological target: cellular cyclin E (UniProt Q61457); test: GST pull-down from cell lysates, blot stripped and reprobed with cyclin E-specific antibody

binding [1]: binds
Molecule: c-Abl protein (from UniProt P00520 1-1123) (enzyme)

binding [2]: binds
B1: GST-SSeCKS2 with first L to S (protein, not shown: a dimerising Fc or GST)
chain: AHQEVVAEVHVSTVEKTEEEQGGGGEAEGGVVVEGTGESLPPEKLAEPQEVPQEAEPAEELMKSREMCVSGGDHTQLTDLSPEEKTLPKHPEGIVSEVEMLSSQERIKVQGSPLKKSFSSSGLKKLSGKKQKGKRGGGGDEEPGEYQHIHTESPESADEQKGES

binding [3]: binds
binding [4]: binds
B2: GST-SSeCKS-2 (protein, not shown: a dimerising Fc or GST)
chain: B1 chain with S117L

binding [2]: binds
B3: GST-SSeCKS2 with second L to S (protein, not shown: a dimerising Fc or GST)
chain: B1 chain with S117L, L126S
